This is one part of the list. Hit calls seldom repeat between salt and free forms of one compound.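 Kinases were expressed as nanoluciferase fusions in K562 cells and luminescence was read every 4 h between 2 and 18 h as percent of control, DMSO set to 100% and a positive control to 0%. A time point counts as decreased when the signal drops significantly (2 sigma). The hit call is the authors' own, does not follow from the count of time points alone, and its rule is not shown.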
Legend:
Assay in all cases: kinase-Nluc reporter destabilization hit call (1 = scored as downregulated) (binary); higher = compound decreases kinase abundance
Details in all cases: K562; 2-18 h
BRAF_V600E = tested on: BRAF_V600E
BTK = BTK (UniProt Q06187)
CAMK2A = CAMK2A (UniProt Q9UQM7)
CAMK2G = CAMK2G (UniProt Q13555)
CDK10 = CDK10 (UniProt Q15131)
CDK2 = CDK2 (UniProt P24941)
CDK3 = CDK3 (UniProt Q00526)
CDK4 = CDK4 (UniProt P11802)
CDK5 = CDK5 (UniProt Q00535)
CDK6 = CDK6 (UniProt Q00534)
CDK7 = CDK7 (UniProt P50613)
CDK9 = CDK9 (UniProt P50750)
CHEK2 = CHEK2 (UniProt O96017)
CSF1R = CSF1R (UniProt P07333)
CSK = CSK (UniProt P41240)
CSNK1A1 = CSNK1A1 (UniProt P48729)
CSNK1D = CSNK1D (UniProt P48730)
DDR1 = DDR1 (UniProt Q08345)
DYRK1B = DYRK1B (UniProt Q9Y463)
DYRK2 = DYRK2 (UniProt Q92630)

Protein sequences, listed by entry. Tags and fused reporters are not part of them. Lines headed by an entry give the natural chain unless they say otherwise; changes in a name come on top.
UniProt Q13555: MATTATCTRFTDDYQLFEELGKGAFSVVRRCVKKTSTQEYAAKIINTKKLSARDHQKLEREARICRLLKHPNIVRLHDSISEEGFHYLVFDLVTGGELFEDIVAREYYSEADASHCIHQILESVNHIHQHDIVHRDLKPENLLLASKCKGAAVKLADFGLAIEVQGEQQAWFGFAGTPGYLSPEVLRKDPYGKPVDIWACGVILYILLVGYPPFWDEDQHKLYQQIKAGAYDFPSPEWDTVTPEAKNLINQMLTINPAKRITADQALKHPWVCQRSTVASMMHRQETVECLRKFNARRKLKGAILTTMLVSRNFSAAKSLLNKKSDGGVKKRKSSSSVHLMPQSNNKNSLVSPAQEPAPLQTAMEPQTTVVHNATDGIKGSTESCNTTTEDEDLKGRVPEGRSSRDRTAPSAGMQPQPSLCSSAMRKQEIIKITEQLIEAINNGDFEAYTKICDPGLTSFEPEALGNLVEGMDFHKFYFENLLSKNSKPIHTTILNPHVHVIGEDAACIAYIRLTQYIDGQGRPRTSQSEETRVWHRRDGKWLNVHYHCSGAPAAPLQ
UniProt Q15131: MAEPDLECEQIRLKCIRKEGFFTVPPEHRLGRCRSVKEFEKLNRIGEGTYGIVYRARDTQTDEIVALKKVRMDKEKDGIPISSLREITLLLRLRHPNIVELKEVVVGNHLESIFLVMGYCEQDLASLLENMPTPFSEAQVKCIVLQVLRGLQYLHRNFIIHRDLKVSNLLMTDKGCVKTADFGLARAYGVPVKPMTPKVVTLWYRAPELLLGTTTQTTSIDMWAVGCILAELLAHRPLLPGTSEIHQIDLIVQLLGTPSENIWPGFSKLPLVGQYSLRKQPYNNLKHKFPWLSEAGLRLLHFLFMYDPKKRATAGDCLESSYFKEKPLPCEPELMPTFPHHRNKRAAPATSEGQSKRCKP
UniProt Q00526: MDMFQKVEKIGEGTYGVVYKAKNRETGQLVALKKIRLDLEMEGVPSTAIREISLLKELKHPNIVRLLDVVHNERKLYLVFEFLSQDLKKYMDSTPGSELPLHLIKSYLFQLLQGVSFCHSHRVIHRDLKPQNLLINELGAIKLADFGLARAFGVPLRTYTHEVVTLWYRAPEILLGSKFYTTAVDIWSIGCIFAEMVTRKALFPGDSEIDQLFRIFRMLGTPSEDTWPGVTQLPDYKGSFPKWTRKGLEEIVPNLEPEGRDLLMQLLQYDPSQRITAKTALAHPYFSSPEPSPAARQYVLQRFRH
UniProt Q00535, whole entry, looked up: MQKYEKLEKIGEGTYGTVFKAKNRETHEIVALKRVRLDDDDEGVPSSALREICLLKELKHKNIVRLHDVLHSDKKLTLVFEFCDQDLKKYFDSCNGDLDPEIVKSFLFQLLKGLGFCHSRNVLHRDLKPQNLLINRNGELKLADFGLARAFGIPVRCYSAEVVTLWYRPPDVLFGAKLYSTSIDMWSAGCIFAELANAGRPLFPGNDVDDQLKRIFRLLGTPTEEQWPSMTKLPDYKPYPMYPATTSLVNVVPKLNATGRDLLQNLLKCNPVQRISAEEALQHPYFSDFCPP
UniProt Q00534, whole entry: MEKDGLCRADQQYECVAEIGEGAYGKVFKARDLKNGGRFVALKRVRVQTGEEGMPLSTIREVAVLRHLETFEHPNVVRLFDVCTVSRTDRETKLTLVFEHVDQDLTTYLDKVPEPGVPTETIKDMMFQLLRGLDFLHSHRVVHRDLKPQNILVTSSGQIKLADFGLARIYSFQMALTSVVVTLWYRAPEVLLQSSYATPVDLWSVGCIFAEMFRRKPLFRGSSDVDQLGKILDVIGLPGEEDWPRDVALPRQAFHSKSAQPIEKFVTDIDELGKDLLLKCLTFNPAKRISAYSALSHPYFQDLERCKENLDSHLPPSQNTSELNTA
UniProt P50613: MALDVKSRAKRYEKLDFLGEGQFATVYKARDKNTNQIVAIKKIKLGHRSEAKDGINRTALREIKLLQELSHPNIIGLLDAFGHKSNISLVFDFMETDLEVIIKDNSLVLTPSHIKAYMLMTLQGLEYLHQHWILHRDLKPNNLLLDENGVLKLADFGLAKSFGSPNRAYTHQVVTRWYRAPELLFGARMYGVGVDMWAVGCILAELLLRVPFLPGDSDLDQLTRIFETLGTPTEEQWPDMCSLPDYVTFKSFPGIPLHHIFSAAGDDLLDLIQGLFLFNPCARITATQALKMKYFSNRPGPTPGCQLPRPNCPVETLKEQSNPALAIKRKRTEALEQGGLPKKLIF
UniProt P07333, whole entry: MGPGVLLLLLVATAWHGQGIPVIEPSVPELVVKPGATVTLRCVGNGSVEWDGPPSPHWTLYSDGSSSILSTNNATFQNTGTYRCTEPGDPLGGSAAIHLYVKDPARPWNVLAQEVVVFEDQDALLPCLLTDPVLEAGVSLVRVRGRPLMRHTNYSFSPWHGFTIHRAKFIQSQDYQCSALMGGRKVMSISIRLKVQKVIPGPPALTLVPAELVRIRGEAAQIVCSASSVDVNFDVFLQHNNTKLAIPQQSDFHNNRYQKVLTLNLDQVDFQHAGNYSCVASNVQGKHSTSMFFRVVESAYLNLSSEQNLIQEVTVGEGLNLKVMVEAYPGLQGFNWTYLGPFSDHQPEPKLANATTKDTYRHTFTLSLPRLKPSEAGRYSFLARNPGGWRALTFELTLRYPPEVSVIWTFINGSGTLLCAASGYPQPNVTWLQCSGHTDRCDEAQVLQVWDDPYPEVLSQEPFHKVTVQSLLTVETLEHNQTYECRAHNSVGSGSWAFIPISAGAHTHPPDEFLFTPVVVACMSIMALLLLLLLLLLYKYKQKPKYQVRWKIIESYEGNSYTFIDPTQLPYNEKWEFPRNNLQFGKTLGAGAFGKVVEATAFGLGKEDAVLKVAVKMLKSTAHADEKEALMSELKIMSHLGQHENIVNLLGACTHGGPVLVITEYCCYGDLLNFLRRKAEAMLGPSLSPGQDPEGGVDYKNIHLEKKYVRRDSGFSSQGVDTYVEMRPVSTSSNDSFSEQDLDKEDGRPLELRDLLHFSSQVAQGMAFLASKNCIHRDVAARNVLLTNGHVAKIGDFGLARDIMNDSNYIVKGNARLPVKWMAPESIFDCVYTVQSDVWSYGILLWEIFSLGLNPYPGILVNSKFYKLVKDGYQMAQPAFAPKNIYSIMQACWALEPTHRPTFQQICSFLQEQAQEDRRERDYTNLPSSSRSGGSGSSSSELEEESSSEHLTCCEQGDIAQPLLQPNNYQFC
UniProt P41240: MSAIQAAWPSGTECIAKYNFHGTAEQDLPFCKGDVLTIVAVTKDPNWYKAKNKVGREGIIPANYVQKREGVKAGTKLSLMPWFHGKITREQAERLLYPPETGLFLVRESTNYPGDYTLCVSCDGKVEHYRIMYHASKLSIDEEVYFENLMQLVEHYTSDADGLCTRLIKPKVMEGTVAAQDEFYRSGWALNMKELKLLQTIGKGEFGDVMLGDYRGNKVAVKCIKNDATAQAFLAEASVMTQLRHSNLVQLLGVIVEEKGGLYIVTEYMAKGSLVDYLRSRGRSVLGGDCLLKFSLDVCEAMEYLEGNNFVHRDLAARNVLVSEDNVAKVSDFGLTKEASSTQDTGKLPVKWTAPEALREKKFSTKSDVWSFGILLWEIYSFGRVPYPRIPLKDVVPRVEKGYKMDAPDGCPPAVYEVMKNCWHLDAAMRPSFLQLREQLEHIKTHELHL
UniProt P48729: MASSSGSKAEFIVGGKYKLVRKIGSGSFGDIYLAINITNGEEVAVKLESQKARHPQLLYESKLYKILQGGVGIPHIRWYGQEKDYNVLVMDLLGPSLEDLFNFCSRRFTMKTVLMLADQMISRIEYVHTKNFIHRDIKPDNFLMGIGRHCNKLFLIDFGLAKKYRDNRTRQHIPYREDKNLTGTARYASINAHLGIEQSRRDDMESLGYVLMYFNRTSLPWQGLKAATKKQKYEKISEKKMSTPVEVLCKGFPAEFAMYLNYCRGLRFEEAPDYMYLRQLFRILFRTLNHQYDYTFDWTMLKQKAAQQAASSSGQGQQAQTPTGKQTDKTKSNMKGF
UniProt P48730: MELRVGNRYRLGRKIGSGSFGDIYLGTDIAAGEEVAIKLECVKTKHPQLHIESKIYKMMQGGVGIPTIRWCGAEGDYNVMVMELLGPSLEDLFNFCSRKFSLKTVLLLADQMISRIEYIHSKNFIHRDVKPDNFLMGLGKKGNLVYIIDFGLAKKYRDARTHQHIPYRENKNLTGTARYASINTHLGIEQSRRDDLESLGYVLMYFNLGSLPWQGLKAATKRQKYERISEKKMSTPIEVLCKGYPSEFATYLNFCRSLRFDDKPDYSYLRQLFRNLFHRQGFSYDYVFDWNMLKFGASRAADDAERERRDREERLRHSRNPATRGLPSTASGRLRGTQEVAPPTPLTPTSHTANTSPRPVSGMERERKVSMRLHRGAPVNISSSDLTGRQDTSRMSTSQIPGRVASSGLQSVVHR
UniProt Q08345: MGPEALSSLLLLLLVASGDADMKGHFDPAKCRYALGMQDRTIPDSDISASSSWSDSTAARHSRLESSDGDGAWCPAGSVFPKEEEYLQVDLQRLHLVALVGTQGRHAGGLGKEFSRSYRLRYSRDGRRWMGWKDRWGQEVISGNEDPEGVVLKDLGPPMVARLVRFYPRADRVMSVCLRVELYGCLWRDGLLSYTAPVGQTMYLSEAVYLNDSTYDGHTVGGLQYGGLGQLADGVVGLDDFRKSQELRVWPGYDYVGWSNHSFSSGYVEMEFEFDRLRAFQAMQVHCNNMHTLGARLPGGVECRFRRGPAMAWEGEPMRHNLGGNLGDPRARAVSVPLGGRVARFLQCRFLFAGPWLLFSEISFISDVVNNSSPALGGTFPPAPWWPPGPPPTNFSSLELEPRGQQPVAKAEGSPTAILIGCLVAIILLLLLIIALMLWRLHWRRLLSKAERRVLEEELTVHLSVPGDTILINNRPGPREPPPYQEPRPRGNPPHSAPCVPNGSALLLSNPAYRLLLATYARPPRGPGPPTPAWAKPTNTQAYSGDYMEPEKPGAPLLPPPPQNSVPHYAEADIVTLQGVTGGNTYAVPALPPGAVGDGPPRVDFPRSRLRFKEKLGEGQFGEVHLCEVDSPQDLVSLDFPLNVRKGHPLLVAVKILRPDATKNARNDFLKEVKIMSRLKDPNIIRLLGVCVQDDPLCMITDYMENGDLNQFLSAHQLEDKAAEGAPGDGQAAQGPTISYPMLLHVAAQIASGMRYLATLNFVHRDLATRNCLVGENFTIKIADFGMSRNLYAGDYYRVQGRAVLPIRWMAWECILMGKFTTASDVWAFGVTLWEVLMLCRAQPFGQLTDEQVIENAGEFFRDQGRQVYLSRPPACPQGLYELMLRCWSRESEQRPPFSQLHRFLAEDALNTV
UniProt Q9Y463, whole entry, looked up: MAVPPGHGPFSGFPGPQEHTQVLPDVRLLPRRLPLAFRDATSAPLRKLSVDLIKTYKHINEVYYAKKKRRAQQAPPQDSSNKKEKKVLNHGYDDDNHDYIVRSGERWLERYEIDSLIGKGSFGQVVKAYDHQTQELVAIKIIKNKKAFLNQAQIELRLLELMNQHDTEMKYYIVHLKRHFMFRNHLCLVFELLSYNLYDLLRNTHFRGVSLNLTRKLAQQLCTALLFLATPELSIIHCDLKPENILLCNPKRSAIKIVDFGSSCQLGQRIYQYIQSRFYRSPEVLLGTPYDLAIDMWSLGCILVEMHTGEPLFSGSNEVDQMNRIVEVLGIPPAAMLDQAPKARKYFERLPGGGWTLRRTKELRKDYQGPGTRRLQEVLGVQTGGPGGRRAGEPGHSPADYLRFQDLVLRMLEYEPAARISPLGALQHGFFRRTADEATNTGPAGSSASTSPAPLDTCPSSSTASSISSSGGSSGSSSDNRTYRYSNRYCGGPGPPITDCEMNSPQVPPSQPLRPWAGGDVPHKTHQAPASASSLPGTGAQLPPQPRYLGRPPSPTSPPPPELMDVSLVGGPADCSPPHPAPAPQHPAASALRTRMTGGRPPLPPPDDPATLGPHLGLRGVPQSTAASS
UniProt Q92630: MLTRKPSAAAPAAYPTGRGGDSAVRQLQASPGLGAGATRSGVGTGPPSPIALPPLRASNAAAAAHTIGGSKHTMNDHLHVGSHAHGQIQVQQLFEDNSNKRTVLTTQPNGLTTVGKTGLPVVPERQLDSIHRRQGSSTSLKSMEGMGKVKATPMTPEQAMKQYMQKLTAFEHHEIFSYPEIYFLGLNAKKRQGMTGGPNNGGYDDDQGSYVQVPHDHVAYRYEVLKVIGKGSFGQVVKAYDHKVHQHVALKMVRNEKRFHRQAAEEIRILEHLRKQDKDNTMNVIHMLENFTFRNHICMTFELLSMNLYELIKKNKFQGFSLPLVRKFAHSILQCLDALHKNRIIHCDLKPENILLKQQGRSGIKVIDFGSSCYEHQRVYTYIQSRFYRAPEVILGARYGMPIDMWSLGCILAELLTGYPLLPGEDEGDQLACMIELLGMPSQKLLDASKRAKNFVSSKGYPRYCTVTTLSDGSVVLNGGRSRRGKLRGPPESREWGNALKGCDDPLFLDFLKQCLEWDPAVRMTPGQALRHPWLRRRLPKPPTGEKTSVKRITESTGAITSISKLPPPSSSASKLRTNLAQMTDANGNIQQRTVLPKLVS

Structure (SMILES) | kinase-Nluc reporter destabilization hit call (BRAF_V600E) | kinase-Nluc reporter destabilization hit call (BTK) | kinase-Nluc reporter destabilization hit call (CAMK2A) | kinase-Nluc reporter destabilization hit call (CAMK2G) | kinase-Nluc reporter destabilization hit call (CDK10) | kinase-Nluc reporter destabilization hit call (CDK2) | kinase-Nluc reporter destabilization hit call (CDK3) | kinase-Nluc reporter destabilization hit call (CDK4) | kinase-Nluc reporter destabilization hit call (CDK5) | kinase-Nluc reporter destabilization hit call (CDK6) | kinase-Nluc reporter destabilization hit call (CDK7) | kinase-Nluc reporter destabilization hit call (CDK9) | kinase-Nluc reporter destabilization hit call (CHEK2) | kinase-Nluc reporter destabilization hit call (CSF1R) | kinase-Nluc reporter destabilization hit call (CSK) | kinase-Nluc reporter destabilization hit call (CSNK1A1) | kinase-Nluc reporter destabilization hit call (CSNK1D) | kinase-Nluc reporter destabilization hit call (DDR1) | kinase-Nluc reporter destabilization hit call (DYRK1B) | kinase-Nluc reporter destabilization hit call (DYRK2)
COCCNc1cc(NC(=O)N2CCCc3cc(CN4CCN(C)CC4=O)c(C=O)nc32)ncc1C#N [Roblitinib] (10 µM) | inactive: 0 | inactive: 0 | inactive: 0 | inactive: 0 | inactive: 0 | inactive: 0 | inactive: 0 | inactive: 0 | inactive: 0 | inactive: 0 | inactive: 0 | inactive: 0 | inactive: 0 | inactive: 0 | inactive: 0 | inactive: 0 | inactive: 0 | inactive: 0 | inactive: 0 | inactive: 0
N#Cc1ccnc(Nc2cc(C3CCN(C4COC4)CC3)cc(N3CCC(F)(F)C3)n2)c1 (2.5 µM) | inactive: 0 | inactive: 0 | inactive: 0 | inactive: 0 | inactive: 0 | inactive: 0 | inactive: 0 | inactive: 0 | inactive: 0 | inactive: 0 | inactive: 0 | inactive: 0 | inactive: 0 | inactive: 0 | inactive: 0 | inactive: 0 | inactive: 0 | inactive: 0 | inactive: 0 | inactive: 0
FC(F)(F)c1ccc(/C=C/c2nc(COc3ccc(CCCCn4ccnn4)cc3)co2)cc1 [Mubritinib] (10 µM) | inactive: 0 | inactive: 0 | inactive: 0 | inactive: 0 | inactive: 0 | inactive: 0 | inactive: 0 | inactive: 0 | inactive: 0 | inactive: 0 | inactive: 0 | inactive: 0 | inactive: 0 | inactive: 0 | inactive: 0 | inactive: 0 | inactive: 0 | inactive: 0 | inactive: 0 | inactive: 0
Cc1cnc(NC2CCOCC2)nc1-n1cnc(C(=O)N[C@H](CN)c2cc(F)cc(Cl)c2)c1 (10 µM) | inactive: 0 | inactive: 0 | inactive: 0 | inactive: 0 | inactive: 0 | inactive: 0 | inactive: 0 | inactive: 0 | inactive: 0 | inactive: 0 | inactive: 0 | inactive: 0 | inactive: 0 | inactive: 0 | inactive: 0 | inactive: 0 | inactive: 0 | inactive: 0 | inactive: 0 | inactive: 0
O=C(NC1CCOCC1)c1ccc(-c2cc(-c3c[nH]nc3-c3ccccn3)ccn2)cc1 (10 µM) | inactive: 0 | inactive: 0 | inactive: 0 | inactive: 0 | inactive: 0 | inactive: 0 | inactive: 0 | inactive: 0 | inactive: 0 | inactive: 0 | inactive: 0 | inactive: 0 | inactive: 0 | inactive: 0 | inactive: 0 | inactive: 0 | inactive: 0 | inactive: 0 | inactive: 0 | inactive: 0
CNc1nc(Nc2ccc(C(=O)N3CCOCC3)cc2OC)ncc1Cl (2.5 µM) | inactive: 0 | inactive: 0 | inactive: 0 | inactive: 0 | inactive: 0 | inactive: 0 | inactive: 0 | inactive: 0 | inactive: 0 | inactive: 0 | inactive: 0 | inactive: 0 | inactive: 0 | inactive: 0 | inactive: 0 | inactive: 0 | inactive: 0 | inactive: 0 | inactive: 0 | inactive: 0
N#Cc1c2nc3ccccc3nc2n2ccc(NC(=O)c3cccs3)cc12 (10 µM) | inactive: 0 | inactive: 0 | inactive: 0 | inactive: 0 | inactive: 0 | inactive: 0 | inactive: 0 | inactive: 0 | inactive: 0 | inactive: 0 | inactive: 0 | inactive: 0 | inactive: 0 | inactive: 0 | inactive: 0 | inactive: 0 | inactive: 0 | inactive: 0 | inactive: 0 | inactive: 0
Nc1n[nH]c2nc(-c3ccc(NS(=O)(=O)c4cc(Cl)ccc4F)cc3)cnc12 (10 µM) | inactive: 0 | inactive: 0 | inactive: 0 | inactive: 0 | active: 1 | inactive: 0 | inactive: 0 | inactive: 0 | inactive: 0 | inactive: 0 | inactive: 0 | inactive: 0 | inactive: 0 | inactive: 0 | inactive: 0 | inactive: 0 | inactive: 0 | active: 1 | inactive: 0 | inactive: 0
O=C1NC(=O)C(c2cnc3ccccn23)=C1c1cn2c3c(cc(F)cc13)CNCC2 [GSK-3 inhibitor 1] (2.5 µM) | inactive: 0 | inactive: 0 | inactive: 0 | inactive: 0 | inactive: 0 | inactive: 0 | inactive: 0 | inactive: 0 | inactive: 0 | inactive: 0 | inactive: 0 | inactive: 0 | inactive: 0 | inactive: 0 | inactive: 0 | inactive: 0 | inactive: 0 | inactive: 0 | inactive: 0 | inactive: 0
N[C@@H](CCC(=O)O)C(=O)N[C@@H](Cc1c[nH]c2ccccc12)C(=O)O [Oglufanide] (10 µM) | inactive: 0 | inactive: 0 | inactive: 0 | inactive: 0 | inactive: 0 | inactive: 0 | inactive: 0 | inactive: 0 | inactive: 0 | inactive: 0 | inactive: 0 | inactive: 0 | inactive: 0 | inactive: 0 | inactive: 0 | inactive: 0 | inactive: 0 | inactive: 0 | inactive: 0 | inactive: 0
C=C[C@@](C)(/C=C/c1ccc(O)cc1)CCC=C(C)C [Bakuchiol] (10 µM) | inactive: 0 | inactive: 0 | inactive: 0 | inactive: 0 | inactive: 0 | inactive: 0 | inactive: 0 | inactive: 0 | inactive: 0 | inactive: 0 | inactive: 0 | inactive: 0 | inactive: 0 | inactive: 0 | inactive: 0 | inactive: 0 | inactive: 0 | inactive: 0 | inactive: 0 | inactive: 0
COc1ccc(/C=C/C(=O)C2(C(=O)/C=C/c3ccc(OC)c(OC)c3)CCCCC2)cc1OC (2.5 µM) | inactive: 0 | inactive: 0 | inactive: 0 | inactive: 0 | inactive: 0 | inactive: 0 | inactive: 0 | inactive: 0 | inactive: 0 | inactive: 0 | inactive: 0 | inactive: 0 | inactive: 0 | inactive: 0 | inactive: 0 | inactive: 0 | inactive: 0 | inactive: 0 | inactive: 0 | inactive: 0
COc1cc(N2CCOCC2)ccc1Nc1ncc(Cl)c(Nc2ccccc2NS(C)(=O)=O)n1 (2.5 µM) | inactive: 0 | inactive: 0 | inactive: 0 | inactive: 0 | inactive: 0 | inactive: 0 | inactive: 0 | inactive: 0 | inactive: 0 | inactive: 0 | inactive: 0 | inactive: 0 | inactive: 0 | inactive: 0 | inactive: 0 | inactive: 0 | inactive: 0 | inactive: 0 | inactive: 0 | inactive: 0
C[C@H](Nc1ncnc2[nH]cnc12)c1cc2ccc(F)cc2nc1-c1ccccn1 (10 µM) | inactive: 0 | inactive: 0 | inactive: 0 | inactive: 0 | inactive: 0 | inactive: 0 | inactive: 0 | inactive: 0 | inactive: 0 | inactive: 0 | inactive: 0 | inactive: 0 | inactive: 0 | inactive: 0 | inactive: 0 | inactive: 0 | inactive: 0 | inactive: 0 | inactive: 0 | inactive: 0
C[C@@H]1COCCN1c1nc(-c2cnc(N)cc2C(F)F)nc(N2[C@H](C)COC[C@@H]2C)n1 (2.5 µM) | inactive: 0 | inactive: 0 | inactive: 0 | inactive: 0 | inactive: 0 | inactive: 0 | inactive: 0 | inactive: 0 | inactive: 0 | inactive: 0 | inactive: 0 | inactive: 0 | inactive: 0 | inactive: 0 | inactive: 0 | inactive: 0 | inactive: 0 | inactive: 0 | inactive: 0 | inactive: 0
Oc1ccc(/C=C/c2cc(O)cc(O)c2)cc1 [Resveratrol] (10 µM) | inactive: 0 | inactive: 0 | inactive: 0 | inactive: 0 | inactive: 0 | inactive: 0 | inactive: 0 | inactive: 0 | inactive: 0 | inactive: 0 | inactive: 0 | inactive: 0 | inactive: 0 | inactive: 0 | inactive: 0 | inactive: 0 | inactive: 0 | inactive: 0 | inactive: 0 | inactive: 0
CC(C)c1cc(/C=C(\C#N)C(=O)NCCCc2ccccc2)cc(C(C)C)c1O (10 µM) | inactive: 0 | inactive: 0 | inactive: 0 | inactive: 0 | inactive: 0 | inactive: 0 | inactive: 0 | inactive: 0 | inactive: 0 | inactive: 0 | inactive: 0 | inactive: 0 | inactive: 0 | inactive: 0 | inactive: 0 | inactive: 0 | inactive: 0 | inactive: 0 | inactive: 0 | inactive: 0
Cc1cc(Nc2ncnc3ccc(-c4ccc(CNCCS(C)(=O)=O)o4)cc23)ccc1Oc1ccn2ncnc2c1 [ARRY-380 (analog )] (2.5 µM) | inactive: 0 | inactive: 0 | inactive: 0 | inactive: 0 | inactive: 0 | inactive: 0 | inactive: 0 | inactive: 0 | inactive: 0 | inactive: 0 | inactive: 0 | inactive: 0 | inactive: 0 | inactive: 0 | inactive: 0 | inactive: 0 | inactive: 0 | inactive: 0 | inactive: 0 | inactive: 0

One compound at a time, as listed above. Order of values: kinase-Nluc reporter destabilization hit call (BRAF_V600E)	kinase-Nluc reporter destabilization hit call (BTK)	kinase-Nluc reporter destabilization hit call (CAMK2A)	kinase-Nluc reporter destabilization hit call (CAMK2G)	kinase-Nluc reporter destabilization hit call (CDK10)	kinase-Nluc reporter destabilization hit call (CDK2)	kinase-Nluc reporter destabilization hit call (CDK3)	kinase-Nluc reporter destabilization hit call (CDK4)	kinase-Nluc reporter destabilization hit call (CDK5)	kinase-Nluc reporter destabilization hit call (CDK6)	kinase-Nluc reporter destabilization hit call (CDK7)	kinase-Nluc reporter destabilization hit call (CDK9)	kinase-Nluc reporter destabilization hit call (CHEK2)	kinase-Nluc reporter destabilization hit call (CSF1R)	kinase-Nluc reporter destabilization hit call (CSK)	kinase-Nluc reporter destabilization hit call (CSNK1A1)	kinase-Nluc reporter destabilization hit call (CSNK1D)	kinase-Nluc reporter destabilization hit call (DDR1)	kinase-Nluc reporter destabilization hit call (DYRK1B)	kinase-Nluc reporter destabilization hit call (DYRK2)
Oc1ccc(/C=C/c2cc(O)cc(O)c2)cc1 [Resveratrol] (10 µM) as listed: inactive: 0	inactive: 0	inactive: 0	inactive: 0	inactive: 0	inactive: 0	inactive: 0	inactive: 0	inactive: 0	inactive: 0	inactive: 0	inactive: 0	inactive: 0	inactive: 0	inactive: 0	inactive: 0	inactive: 0	inactive: 0	inactive: 0	inactive: 0
N[C@@H](CCC(=O)O)C(=O)N[C@@H](Cc1c[nH]c2ccccc12)C(=O)O [Oglufanide] (10 µM) as listed: inactive: 0	inactive: 0	inactive: 0	inactive: 0	inactive: 0	inactive: 0	inactive: 0	inactive: 0	inactive: 0	inactive: 0	inactive: 0	inactive: 0	inactive: 0	inactive: 0	inactive: 0	inactive: 0	inactive: 0	inactive: 0	inactive: 0	inactive: 0

Source: the supplement of paper PMC12823440, “Inhibitors supercharge kinase turnover through native proteolytic circuits” (Nature, 2025)
